According to patent publication US9709886B2, “Sulfonic acid derivative compounds as photoacid generators in resist applications” (Heraeus Precious Metals North America Daychem LLC, priority 2015, dated 2017):

assay: Photolysis of PAGs in acetonitrile, irradiation at 365 nm (photoreactivity); type: physicochemical; conditions: photoreaction constant in acetonitrile (3×10^−5 M), NIT normalized to one
Excerpt: A photoresist composition typically comprises PAG, polymers, additives and solvents. The performance of a photoresist composition is mainly dependent on the properties of the PAG and polymer components. To formulate a high-performance photoresist composition, more photosensitive PAGs are typically selected. The photosensitivity of a PAG is typically directly related to the strength of the generated acid and the photoreactivity of the PAG. For a series of PAGs producing the same latent acid, their photosensitivity is related only to their photoreactivity. Thus evaluating the photosensitivity of a PAG can be achieved by studying its photoreactivity. The higher photoreactivity, the higher photosensitivity. The photoreactivity can be investigated by photolysis of a PAG in its dilute solution under low exposure intensity (to avoid side reactions which don't generate the desired acid). The change in the concentration of a PAG upon irradiation can be determined by measuring the absorbance of the PAG at the maximum absorption wavelength.
Photolysis of PAGs was carried out in acetonitrile in air at room temperature. The sodium salt of tetrabromophenol blue (TBPBNa), an acid indicator dye, which has a maximum absorption at 618 nm, was purchased from Aldrich (indicator grade) and used as received. Irradiation of the solution of the PAGs (3×10^−5 M) was performed using a Cole-Parmer UV 15 W bench lamp (EW-97605-50) at 365 nm. Light intensity was measured using an UV Power Puck II radiometer from EIT Inc. UV-Vis spectra were run on a Thermo Scientific Evolution 201 UV-visible spectrophotometer.
Photolysis of NIT, comparative compound A and B, T1, T2, T3, and T5 was examined in acetonitrile. […] The absorption band at 362 nm (λmax) gradually decreases upon irradiation, indicating the progress of photoreaction with the increase of exposure dose of energy. Assuming the photoreaction is first-order, a plot of the natural log of changes in absorbance with exposure dose of energy gives the photoreaction constant of T3 (i.e., the slope of the linear trendline) (FIG. 2). The photoreaction constants of other compounds were similarly determined under the same irradiation condition. Comparing the constants of A, B, T1, T2, T3, and T5 with that of NIT normalized to one gives the relative photoreactivity (Table 9). […] The formation of acid upon irradiation was confirmed by observing the spectral changes of the acid indicator, TBPBNa at 618 nm.

Structure (SMILES)	Relative Photoreactivity at 365 nm
O=C1c2cccc3c(C#Cc4ccccc4)ccc(c23)C(=O)N1OS(=O)(=O)C(F)(F)F [A, reference compound]	2.5
CCCCC#Cc1ccc2c3c(cccc13)C(=O)N(OS(=O)(=O)C(F)(F)F)C2=O [B, reference compound]	8.0
CCCCC#Cc1ccc2c3c(cccc13)C(=O)N(OS(=O)(=O)C(F)(F)C(F)(F)C(F)(F)C(F)(F)F)C2=O [Compound T1]	9.3
CCCCCCC#Cc1ccc2c3c(cccc13)C(=O)N(OS(=O)(=O)C(F)(F)F)C2=O [Compound T2]	8.6
CCCCCCC#Cc1ccc2c3c(cccc13)C(=O)N(OS(=O)(=O)C(F)(F)C(F)(F)C(F)(F)C(F)(F)F)C2=O [Compound T3]	9.6
CCCC(=O)OCC#Cc1ccc2c3c(cccc13)C(=O)N(OS(=O)(=O)C(F)(F)F)C2=O [Compound T5]	4.0
O=C1c2cccc3cccc(c23)C(=O)N1OS(=O)(=O)C(F)(F)F [NIT, N-Hydroxynaphthalimide triflate, reference compound]	1.0
